These results are taken from paper PMC8216813.

Protein sequences, listed by entry. Tags and fused reporters are not part of them.
UniProt P63208: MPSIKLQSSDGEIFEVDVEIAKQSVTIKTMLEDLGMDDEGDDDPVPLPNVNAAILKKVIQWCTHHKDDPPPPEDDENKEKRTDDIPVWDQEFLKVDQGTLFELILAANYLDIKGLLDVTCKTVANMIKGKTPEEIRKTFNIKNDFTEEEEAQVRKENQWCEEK
UniProt Q9NYY3: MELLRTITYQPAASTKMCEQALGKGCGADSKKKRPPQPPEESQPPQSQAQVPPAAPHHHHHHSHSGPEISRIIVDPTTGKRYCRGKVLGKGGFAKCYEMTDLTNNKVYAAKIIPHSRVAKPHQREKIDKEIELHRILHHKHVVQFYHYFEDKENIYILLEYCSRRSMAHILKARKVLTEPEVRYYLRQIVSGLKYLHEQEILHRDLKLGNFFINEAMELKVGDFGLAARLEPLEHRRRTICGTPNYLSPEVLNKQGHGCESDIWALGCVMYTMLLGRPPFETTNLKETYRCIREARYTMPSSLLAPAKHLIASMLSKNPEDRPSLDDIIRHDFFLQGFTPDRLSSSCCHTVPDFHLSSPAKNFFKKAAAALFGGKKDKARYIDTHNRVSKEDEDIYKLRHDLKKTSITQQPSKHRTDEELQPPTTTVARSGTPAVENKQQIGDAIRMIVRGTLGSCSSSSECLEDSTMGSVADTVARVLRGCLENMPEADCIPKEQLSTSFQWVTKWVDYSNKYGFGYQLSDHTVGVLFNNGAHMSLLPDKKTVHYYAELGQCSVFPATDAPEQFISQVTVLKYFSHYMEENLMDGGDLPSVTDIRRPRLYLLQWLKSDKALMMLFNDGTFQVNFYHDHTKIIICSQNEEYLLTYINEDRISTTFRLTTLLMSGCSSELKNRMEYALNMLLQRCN

For the test, the target named is S-phase kinase-associated protein 1 (UniProt P63208). In words: co-IP; cell lysates precleared with protein A/G magnetic beads, immunoprecipitated with the primary antibody Flag at 4°C overnight, protein A/G magnetic beads, Western blot. Background: A western blot detects proteins with antibodies after separation by electrophoresis.

These are yes or no findings as the source states them, for the method shown. Binding seen in cells or lysates may run through a third protein. Some results given as binding are weak or reduced against the parent protein; the word gives no strength.

On to “polo-like kinase 2 (from UniProt Q9NYY3 1-685)”, for which the binding entry is “binds”.
